# PubChem BioAssay AID2685 (National Center for Advancing Translational Sciences (NCATS), 2010)
# The other results are listed elsewhere or left out. Shown are side measurements of this screen, not its main read-out; they come without a call. Most of these compounds were active or inconclusive in the main read-out, so they are no random draw. The note in brackets gives the kind of curve behind each potency; many fits are weak.
# Assay: qHTS Assay for Lipid Storage Modulators in Drosophila S3 Cells;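 for cell number change: cells counted by Cell Tracker Red CMTPX staining in the red channel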
# Conditions: BODIPY lipid droplet fluorescence, 18-24 h; for cell number change: measured here: cell count max response, cells fed with added oleic acid
# Outline: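 Laser-scanning cytometry quantifies lipid droplet accumulation (500–530 nm total intensity; droplet/cell object ratio) in oleic acid-fed (400 uM added) Drosophila S3 cells treated with a concentration series. 20 uM Triacsin C defined 100% inhibition.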
# [1] = measured here: lipid fluorescence (Fed channel) AC50, cells fed with added oleic acid
# [2] = measured here: cell number channel AC50, cells fed with added oleic acid
SMILES,cell number change,AC50 [1],AC50 [2]
CN1CCN(CCCCOc2ccc(F)cc2)CC1,0.129%,"4.61 nM [rising, full curve, poor fit]",
CCCc1c(O)nc(SC2CC(=O)N(c3ccc(OC)cc3)C2=O)[nH]c1=O (centres undefined),-8.54%,"731 nM [rising, single point]",
Cc1cc(C(=O)N2CCN(S(C)(=O)=O)CC2)sc1-c1ccccc1,12%,"29100 nM [falling, single point]",
CCOc1cc(/C=N/n2cnnc2)cc(Br)c1O,-16.9%,"820 nM [rising, full curve]",
Cc1nc2ccccc2c(=O)n1/N=C/c1cc(Br)ccc1O,13.5%,"6510 nM [falling, single point]",
COc1cc(/C=C2\CC/C(=C\c3ccc(OCCO)c(OC)c3)C2=O)ccc1OCCO,,"14600 nM [falling, partial curve, poor fit]",
CCN(CC)CCN(C(=O)c1ccc(S(=O)(=O)N2CCCCC2)cc1)c1nc2cc3c(cc2s1)OCO3,-6.13%,,"2590 nM [falling, partial curve]"
CNS(=O)(=O)c1ccc(N2CCCC2)c([N+](=O)[O-])c1,71.3%,,
CCS(=O)c1ccccc1C(=O)O (centres undefined),-34.5%,"2590 nM [rising, single point]","1300 nM [falling, full curve]"
COc1ccc(-c2noc(CCC(=O)NCc3cc(Br)ccc3OC)n2)cc1,-19.5%,,"517 nM [falling, partial curve]"
CCN1CCN(CC(=O)Nc2ccc3c(c2)OCCO3)C(=O)C1=O,-17.1%,"651 nM [falling, full curve, poor fit]",
Cc1ccc(S(=O)(=O)CNC(=S)c2ccc3ccccc3c2)cc1,15.2%,"1460 nM [falling, partial curve]","130 nM [falling, full curve]"
CC1=CC(C)[C@H](/C=N/n2c(=O)[nH]c3c([nH]c4ccc(C)cc43)c2=O)C(C)C1 (some centres undefined),-64.6%,"7310 nM [falling, partial curve]","8200 nM [falling, partial curve]"
CN(CC(=O)Nc1ccccc1Cl)C1CCS(=O)(=O)C1 (centres undefined),-35%,"23100 nM [falling, single point]","29100 nM [falling, single point]"
CCCCOc1ccc(C(=O)OCC(=O)Nc2cc(C)on2)cc1,4.27%,"29100 nM [falling, partial curve, poor fit]",
CCOc1ccc(NC(=O)Nc2ccccc2SC)cc1,-10.1%,"3660 nM [falling, single point]",

# 2 entries drawn at random from the list so far, as already listed:
SMILES,cell number change,AC50 [1],AC50 [2]
CCN(CC)CCN(C(=O)c1ccc(S(=O)(=O)N2CCCCC2)cc1)c1nc2cc3c(cc2s1)OCO3,-6.13%,,"2590 nM [falling, partial curve]"
CCS(=O)c1ccccc1C(=O)O (centres undefined),-34.5%,"2590 nM [rising, single point]","1300 nM [falling, full curve]"
